These results are taken from article PMC9798675.

Sequences of proteins named here, by UniProt entry; tags and fusion partners are left off. Residues count along the entry.
UniProt P16234, residues 24-1089: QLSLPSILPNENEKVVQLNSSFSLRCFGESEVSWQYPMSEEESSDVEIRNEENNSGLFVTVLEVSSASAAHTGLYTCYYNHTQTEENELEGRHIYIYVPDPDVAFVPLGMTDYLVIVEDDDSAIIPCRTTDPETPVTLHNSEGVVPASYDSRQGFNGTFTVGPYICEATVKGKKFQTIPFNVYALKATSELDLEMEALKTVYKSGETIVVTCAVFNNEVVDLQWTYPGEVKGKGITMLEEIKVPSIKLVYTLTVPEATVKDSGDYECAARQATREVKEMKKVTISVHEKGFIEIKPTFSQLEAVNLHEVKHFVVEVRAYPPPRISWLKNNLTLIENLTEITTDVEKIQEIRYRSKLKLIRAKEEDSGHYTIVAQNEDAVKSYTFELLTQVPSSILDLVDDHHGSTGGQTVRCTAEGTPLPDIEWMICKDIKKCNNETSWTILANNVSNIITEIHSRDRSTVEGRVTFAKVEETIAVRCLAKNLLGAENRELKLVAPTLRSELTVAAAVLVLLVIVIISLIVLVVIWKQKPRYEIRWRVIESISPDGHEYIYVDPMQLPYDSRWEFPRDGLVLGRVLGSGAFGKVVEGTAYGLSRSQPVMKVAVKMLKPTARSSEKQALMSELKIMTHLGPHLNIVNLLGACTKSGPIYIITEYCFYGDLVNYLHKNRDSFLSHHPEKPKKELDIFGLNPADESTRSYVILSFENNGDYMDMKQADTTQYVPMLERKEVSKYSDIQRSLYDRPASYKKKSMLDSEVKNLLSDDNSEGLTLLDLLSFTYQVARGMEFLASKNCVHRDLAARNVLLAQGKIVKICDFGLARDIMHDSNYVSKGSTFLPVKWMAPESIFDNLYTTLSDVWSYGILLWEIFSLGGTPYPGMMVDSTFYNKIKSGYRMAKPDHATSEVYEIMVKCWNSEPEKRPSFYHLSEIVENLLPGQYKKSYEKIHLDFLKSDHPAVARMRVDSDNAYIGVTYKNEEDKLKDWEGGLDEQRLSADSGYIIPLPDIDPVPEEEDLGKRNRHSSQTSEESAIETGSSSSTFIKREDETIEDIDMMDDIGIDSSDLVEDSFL

Results are given in words; binding and its absence hold for the method and conditions named. For some assays here: In cells and extracts the contact can be indirect. Some binding calls cover weakened binding; strength is not graded here.

Experiment [1] has as its target T1, Sushi domain-containing protein 4 (human SUSD4) (human) (UniProt Q5VX71).
T1 sequence: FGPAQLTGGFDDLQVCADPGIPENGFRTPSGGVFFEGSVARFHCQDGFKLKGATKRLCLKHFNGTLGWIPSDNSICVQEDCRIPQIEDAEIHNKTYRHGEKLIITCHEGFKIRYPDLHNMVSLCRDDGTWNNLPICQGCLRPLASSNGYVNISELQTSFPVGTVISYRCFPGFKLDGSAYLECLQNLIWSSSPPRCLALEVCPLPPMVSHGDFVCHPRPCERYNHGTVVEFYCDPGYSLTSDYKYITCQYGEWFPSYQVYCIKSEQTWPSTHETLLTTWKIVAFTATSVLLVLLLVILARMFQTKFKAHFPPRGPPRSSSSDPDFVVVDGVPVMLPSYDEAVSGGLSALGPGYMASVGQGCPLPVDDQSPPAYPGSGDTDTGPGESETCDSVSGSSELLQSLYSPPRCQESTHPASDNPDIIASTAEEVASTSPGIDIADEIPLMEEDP
Put plainly: co-IP; 500 ug total protein of NP-40 lysates of BT-20 and MDA-MB-468 cells stably expressing SUSD4, overnight with 5 ug anti-SUSD4 antibody, protein G Dynabeads, three washes with NP40 buffer.

Experiment [2] addresses Epithelial Growth Factor Receptor (EGFR) (human (endogenous in BT-20 and MDA-MB-468)) (UniProt P00533). Put plainly: proximity ligation; BT-20 and MDA-MB-468 cells stably expressing SUSD4; fixed with 4% paraformaldehyde, permeabilised (0.1% Triton X-100), primary antibodies 1 h, Duolink or NaveniFlex kit, confocal microscopy.
In experiment [3] the target is Platelet-derived growth factor receptor alpha (PDGFRα) (human (endogenous in BT-20 and MDA-MB-468)) (UniProt P16234). The experiment is described as above.
Experiment [4] deals with Epithelial Growth Factor Receptor (EGFR) (human (endogenous in BT-20 and MDA-MB-468)) (UniProt P00533). Description: ELISA; sandwich ELISA: anti-EGFR capture antibody (200 ng) coated on MaxiSorp plates, 600 ug total NP40 cell lysate of SUSD4-expressing BT-20 or MDA-MB-468 cells overnight at 4 °C, detection with anti-SUSD4 (130 ng).
The target of experiment [5] is Platelet-derived growth factor receptor alpha (PDGFRα) (human (endogenous in BT-20 and MDA-MB-468)) (UniProt P16234). Put plainly: ELISA; sandwich ELISA: anti-PDGFR capture antibody (100 ng) coated on MaxiSorp plates, 1100 ug total NP40 cell lysate of SUSD4-expressing BT-20 cells overnight at 4 °C, detection with anti-SUSD4 (130 ng); also with lysates of CRISPR/Cas9 EGFR knockout BT-20 cells expressing SUSD4.

In the case of “Epithelial Growth Factor Receptor (EGFR) (from UniProt P00533 25-1210)”, the binding entry in experiment [1] is listed as “binds”.

B1: Sushi domain-containing protein 4 (human SUSD4) (protein, UniProt Q5VX71 42-490)
chain: FGPAQLTGGFDDLQVCADPGIPENGFRTPSGGVFFEGSVARFHCQDGFKLKGATKRLCLKHFNGTLGWIPSDNSICVQEDCRIPQIEDAEIHNKTYRHGEKLIITCHEGFKIRYPDLHNMVSLCRDDGTWNNLPICQGCLRPLASSNGYVNISELQTSFPVGTVISYRCFPGFKLDGSAYLECLQNLIWSSSPPRCLALEVCPLPPMVSHGDFVCHPRPCERYNHGTVVEFYCDPGYSLTSDYKYITCQYGEWFPSYQVYCIKSEQTWPSTHETLLTTWKIVAFTATSVLLVLLLVILARMFQTKFKAHFPPRGPPRSSSSDPDFVVVDGVPVMLPSYDEAVSGGLSALGPGYMASVGQGCPLPVDDQSPPAYPGSGDTDTGPGESETCDSVSGSSELLQSLYSPPRCQESTHPASDNPDIIASTAEEVASTSPGIDIADEIPLMEEDP
For the molecule B1, the binding entry in experiment [2], in experiment [3], in experiment [4] and in experiment [5] was “binds” throughout.
